Taken from: PubChem BioAssay AID493246 (Drosophila RNAi Screening Center, 2011)
Assay: 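Genome-wide search for dsRNAs that reduce cell number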 (primary screen). Cell system: Drosophila Kc and S2R+ cells. Reagent: long dsRNA against Drosophila genes. Measurement: 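Raw, unnormalised count of remaining cells in each well; per-plate z-scores of cell number underlie the calls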. Scale: Kc cell number and S2R+ cell number: higher = more cells remaining. Rule for the call: 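Counted as a hit if cell number falls by a z-score of at least 3 within its plate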.
In all, the deposit lists about 21,000 reagents; below is an unselected part of those that have a named target and a result. Over the whole deposit, 429 (2%) got an active call. 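Values are raw and not normalised between plates; calls rest on per-plate z-scores that were not deposited.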 Not given: the amount of reagent, the time to read-out.

RasGAP1 [DRSC11172] scored Kc cell number, rep 1 = 1.25e6; Kc cell number, rep 2 = 1.28e6; S2R+ cell number, rep 1 = 1.34e6; S2R+ cell number, rep 2 = 1.44e6; inactive.
CG7408 [DRSC10841] scored Kc cell number, rep 1 = 1.30e6; Kc cell number, rep 2 = 1.46e6; S2R+ cell number, rep 1 = 1.38e6; S2R+ cell number, rep 2 = 1.45e6; inactive.
With knock-down of CG6236 [DRSC15999], the record shows Kc cell number, rep 1 = 1.60e6; Kc cell number, rep 2 = 1.65e6; S2R+ cell number, rep 1 = 1.38e6; S2R+ cell number, rep 2 = 1.46e6; inactive.
Cdc23 [DRSC02708] scored Kc cell number, rep 1 = 1.27e6; Kc cell number, rep 2 = 1.41e6; S2R+ cell number, rep 1 = 1.10e6; S2R+ cell number, rep 2 = 1.11e6; inactive.
bard [DRSC14796] scored Kc cell number, rep 1 = 1.35e6; Kc cell number, rep 2 = 1.34e6; S2R+ cell number, rep 1 = 1.06e6; S2R+ cell number, rep 2 = 1.14e6; inactive.
PH4alphaEFB [DRSC14473] showed Kc cell number, rep 1 = 5.95e5; S2R+ cell number, rep 1 = 8.46e5; inactive.
With knock-down of PH4alphaEFB [DRSC14950] the results were Kc cell number, rep 1 = 1.50e6; Kc cell number, rep 2 = 1.48e6; S2R+ cell number, rep 1 = 9.69e5; S2R+ cell number, rep 2 = 1.09e6; inactive.
Against hui [DRSC05977], the entry reads Kc cell number, rep 1 = 1.58e6; Kc cell number, rep 2 = 1.58e6; S2R+ cell number, rep 1 = 1.10e6; S2R+ cell number, rep 2 = 1.25e6; inactive.
CG42346 [DRSC20622] gave Kc cell number, rep 1 = 1.53e6; Kc cell number, rep 2 = 1.60e6; S2R+ cell number, rep 1 = 1.09e6; S2R+ cell number, rep 2 = 1.19e6; inactive.
Knock-down of CG42346 [DRSC20644] came out at: Kc cell number, rep 1 = 1.65e6; Kc cell number, rep 2 = 1.66e6; S2R+ cell number, rep 1 = 1.09e6; S2R+ cell number, rep 2 = 1.22e6; inactive.

Entries listed so far whose gene name begins with C or c (5):
CG7408 [DRSC10841] | Kc cell number, rep 1 = 1.30e6; Kc cell number, rep 2 = 1.46e6; S2R+ cell number, rep 1 = 1.38e6; S2R+ cell number, rep 2 = 1.45e6; outcome = inactive
CG6236 [DRSC15999] | Kc cell number, rep 1 = 1.60e6; Kc cell number, rep 2 = 1.65e6; S2R+ cell number, rep 1 = 1.38e6; S2R+ cell number, rep 2 = 1.46e6; outcome = inactive
Cdc23 [DRSC02708] | Kc cell number, rep 1 = 1.27e6; Kc cell number, rep 2 = 1.41e6; S2R+ cell number, rep 1 = 1.10e6; S2R+ cell number, rep 2 = 1.11e6; outcome = inactive
CG42346 [DRSC20622] | Kc cell number, rep 1 = 1.53e6; Kc cell number, rep 2 = 1.60e6; S2R+ cell number, rep 1 = 1.09e6; S2R+ cell number, rep 2 = 1.19e6; outcome = inactive
CG42346 [DRSC20644] | Kc cell number, rep 1 = 1.65e6; Kc cell number, rep 2 = 1.66e6; S2R+ cell number, rep 1 = 1.09e6; S2R+ cell number, rep 2 = 1.22e6; outcome = inactive

Further entries follow:
Silencing of CG14535 [DRSC02393] gave: Kc cell number, rep 1 = 1.53e6; Kc cell number, rep 2 = 1.55e6; S2R+ cell number, rep 1 = 1.22e6; S2R+ cell number, rep 2 = 1.26e6; inactive.
Depletion of CG13229 [DRSC06349] resulted in: Kc cell number, rep 1 = 1.59e6; Kc cell number, rep 2 = 1.60e6; S2R+ cell number, rep 1 = 1.21e6; S2R+ cell number, rep 2 = 1.37e6; inactive.
Knock-down of btl [DRSC11331] gave: Kc cell number, rep 1 = 1.55e6; Kc cell number, rep 2 = 1.71e6; S2R+ cell number, rep 1 = 1.38e6; S2R+ cell number, rep 2 = 1.62e6; inactive.
After knock-down of CG5886 [DRSC15908] the results were Kc cell number, rep 1 = 5.11e5; S2R+ cell number, rep 1 = 7.42e5; inactive.
With knock-down of CG31087 [DRSC14253], the screen gave Kc cell number, rep 1 = 2.00e6; Kc cell number, rep 2 = 2.07e6; S2R+ cell number, rep 1 = 1.09e6; S2R+ cell number, rep 2 = 1.18e6; inactive.
BigH1 [DRSC15491] scored Kc cell number, rep 1 = 1.42e6; Kc cell number, rep 2 = 1.49e6; S2R+ cell number, rep 1 = 1.25e6; S2R+ cell number, rep 2 = 1.26e6; inactive.
Against CG12994 [DRSC19192], the entry reads Kc cell number, rep 1 = 1.28e6; Kc cell number, rep 2 = 1.43e6; S2R+ cell number, rep 1 = 1.03e6; S2R+ cell number, rep 2 = 1.11e6; inactive.
Against CG12994 [DRSC19514] the deposit lists Kc cell number, rep 1 = 1.61e6; Kc cell number, rep 2 = 1.66e6; S2R+ cell number, rep 1 = 1.21e6; S2R+ cell number, rep 2 = 1.35e6; inactive.
CG15046 [DRSC19622] gave Kc cell number, rep 1 = 1.80e6; Kc cell number, rep 2 = 1.83e6; S2R+ cell number, rep 1 = 1.26e6; S2R+ cell number, rep 2 = 1.44e6; inactive.
CG8176 [DRSC16394] scored Kc cell number, rep 1 = 1.50e6; Kc cell number, rep 2 = 1.48e6; S2R+ cell number, rep 1 = 1.23e6; S2R+ cell number, rep 2 = 1.41e6; inactive.
With knock-down of Inx6 [DRSC20579], the record shows Kc cell number, rep 1 = 1.63e6; Kc cell number, rep 2 = 1.71e6; S2R+ cell number, rep 1 = 1.16e6; S2R+ cell number, rep 2 = 1.28e6; inactive.
